{"source": "PubChem BioAssay AID1259254 (NCATS, 2017)", "assay": "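Genome-wide screen for genes that prevent DNA re-replication in cancer cells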 (primary screen)", "cells": "human HCT116 colorectal cancer cells", "knock-down reagent": "single siRNA against human genes", "timing": "3 days", "measurement": "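Nuclei stained with Hoechst and imaged; cell-cycle phase assigned by DNA content; G2 share scaled per plate, non-targeting siRNA 0%, GMNN siRNA 100%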", "direction": "G2 robust z-score: higher = more G2 cells, more excess DNA replication", "hit rule": "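An siRNA counts as active if its G2 robust z-score lies at least 5 MADs above the screen median; here such calls match roughly 38% of GMNN control or more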", "note": "Shown is an unselected part of about 59,000 reagents. Of all reagents, about 1,550 (2.6%) are marked active. 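G2 share is only a proxy for re-replication; each gene was hit by three separate siRNAs, and active genes were retested.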 Reagents against one gene are numbered here. Not all columns of the deposit are shown. The record does not give: the amount of reagent."}
{"target": "ULK4", "siRNA no.": 1, "G2 robust z-score": 0.117, "activity call": "inactive"}
{"target": "ULK4", "siRNA no.": 2, "G2 robust z-score": -1, "activity call": "inactive"}
{"target": "ULK4", "siRNA no.": 3, "G2 robust z-score": 0.301, "activity call": "inactive"}
{"target": "BPGM", "siRNA no.": 1, "G2 robust z-score": -0.0794, "activity call": "inactive"}
{"target": "BPGM", "siRNA no.": 2, "G2 robust z-score": 2.37, "activity call": "inactive"}
{"target": "BPGM", "siRNA no.": 3, "G2 robust z-score": -0.739, "activity call": "inactive"}
{"target": "RBM42", "siRNA no.": 1, "G2 robust z-score": -0.155, "activity call": "inactive"}
{"target": "RBM42", "siRNA no.": 2, "G2 robust z-score": 1.92, "activity call": "inactive"}
{"target": "RBM42", "siRNA no.": 3, "G2 robust z-score": -0.43, "activity call": "inactive"}
{"target": "SAMD11", "siRNA no.": 1, "G2 robust z-score": -0.752, "activity call": "inactive"}
{"target": "SAMD11", "siRNA no.": 2, "G2 robust z-score": 0.81, "activity call": "inactive"}
{"target": "SAMD11", "siRNA no.": 3, "G2 robust z-score": -0.985, "activity call": "inactive"}
{"target": "MCAT", "siRNA no.": 1, "G2 robust z-score": 1.28, "activity call": "inactive"}
{"target": "MCAT", "siRNA no.": 2, "G2 robust z-score": -0.888, "activity call": "inactive"}
{"target": "MCAT", "siRNA no.": 3, "G2 robust z-score": -0.996, "activity call": "inactive"}
{"target": "GJB7", "siRNA no.": 1, "G2 robust z-score": -0.548, "activity call": "inactive"}
{"target": "GJB7", "siRNA no.": 2, "G2 robust z-score": -0.97, "activity call": "inactive"}
{"target": "GJB7", "siRNA no.": 3, "G2 robust z-score": -0.0985, "activity call": "inactive"}
{"target": "GJB7", "siRNA no.": 4, "G2 robust z-score": -0.103, "activity call": "inactive"}
{"target": "GJB7", "siRNA no.": 5, "G2 robust z-score": -0.564, "activity call": "inactive"}
{"target": "GJB7", "siRNA no.": 6, "G2 robust z-score": -0.721, "activity call": "inactive"}
{"target": "RAB41", "siRNA no.": 1, "G2 robust z-score": 0.347, "activity call": "inactive"}
{"target": "RAB41", "siRNA no.": 2, "G2 robust z-score": 0.64, "activity call": "inactive"}
{"target": "RAB41", "siRNA no.": 3, "G2 robust z-score": -0.793, "activity call": "inactive"}

As entered above.
RBM42 #3, activity call = inactive
Value of MCAT #3 in “activity call”: inactive
Result for RBM42 #2 under “G2 robust z-score”: 1.92
Entry for BPGM #2 under “activity call”: inactive
